Article PMC8432861
Changes are numbered by the printed parent chain. Results are given in words; binding and its absence hold for the method and conditions named. Binding seen in cells or lysates may run through a third protein. Some results given as binding are weak or reduced against the parent protein; the word gives no strength. Tags and fused reporters may be left off the sequences shown.

Protein sequences, listed by entry. Tags and fused reporters are not part of them.
UniProt Q13568: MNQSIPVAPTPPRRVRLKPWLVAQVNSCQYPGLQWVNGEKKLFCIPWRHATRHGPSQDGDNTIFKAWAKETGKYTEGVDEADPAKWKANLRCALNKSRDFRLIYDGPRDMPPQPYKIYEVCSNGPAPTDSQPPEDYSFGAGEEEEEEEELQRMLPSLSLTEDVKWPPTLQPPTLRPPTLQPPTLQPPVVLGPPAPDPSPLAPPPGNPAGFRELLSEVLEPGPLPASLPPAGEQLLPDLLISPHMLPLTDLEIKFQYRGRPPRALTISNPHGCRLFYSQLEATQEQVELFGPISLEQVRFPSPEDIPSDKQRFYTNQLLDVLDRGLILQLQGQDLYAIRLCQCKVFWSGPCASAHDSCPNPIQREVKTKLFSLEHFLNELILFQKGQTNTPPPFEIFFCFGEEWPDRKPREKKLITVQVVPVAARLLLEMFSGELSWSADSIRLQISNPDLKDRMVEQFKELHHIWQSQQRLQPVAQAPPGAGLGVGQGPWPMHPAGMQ
UniProt P45481: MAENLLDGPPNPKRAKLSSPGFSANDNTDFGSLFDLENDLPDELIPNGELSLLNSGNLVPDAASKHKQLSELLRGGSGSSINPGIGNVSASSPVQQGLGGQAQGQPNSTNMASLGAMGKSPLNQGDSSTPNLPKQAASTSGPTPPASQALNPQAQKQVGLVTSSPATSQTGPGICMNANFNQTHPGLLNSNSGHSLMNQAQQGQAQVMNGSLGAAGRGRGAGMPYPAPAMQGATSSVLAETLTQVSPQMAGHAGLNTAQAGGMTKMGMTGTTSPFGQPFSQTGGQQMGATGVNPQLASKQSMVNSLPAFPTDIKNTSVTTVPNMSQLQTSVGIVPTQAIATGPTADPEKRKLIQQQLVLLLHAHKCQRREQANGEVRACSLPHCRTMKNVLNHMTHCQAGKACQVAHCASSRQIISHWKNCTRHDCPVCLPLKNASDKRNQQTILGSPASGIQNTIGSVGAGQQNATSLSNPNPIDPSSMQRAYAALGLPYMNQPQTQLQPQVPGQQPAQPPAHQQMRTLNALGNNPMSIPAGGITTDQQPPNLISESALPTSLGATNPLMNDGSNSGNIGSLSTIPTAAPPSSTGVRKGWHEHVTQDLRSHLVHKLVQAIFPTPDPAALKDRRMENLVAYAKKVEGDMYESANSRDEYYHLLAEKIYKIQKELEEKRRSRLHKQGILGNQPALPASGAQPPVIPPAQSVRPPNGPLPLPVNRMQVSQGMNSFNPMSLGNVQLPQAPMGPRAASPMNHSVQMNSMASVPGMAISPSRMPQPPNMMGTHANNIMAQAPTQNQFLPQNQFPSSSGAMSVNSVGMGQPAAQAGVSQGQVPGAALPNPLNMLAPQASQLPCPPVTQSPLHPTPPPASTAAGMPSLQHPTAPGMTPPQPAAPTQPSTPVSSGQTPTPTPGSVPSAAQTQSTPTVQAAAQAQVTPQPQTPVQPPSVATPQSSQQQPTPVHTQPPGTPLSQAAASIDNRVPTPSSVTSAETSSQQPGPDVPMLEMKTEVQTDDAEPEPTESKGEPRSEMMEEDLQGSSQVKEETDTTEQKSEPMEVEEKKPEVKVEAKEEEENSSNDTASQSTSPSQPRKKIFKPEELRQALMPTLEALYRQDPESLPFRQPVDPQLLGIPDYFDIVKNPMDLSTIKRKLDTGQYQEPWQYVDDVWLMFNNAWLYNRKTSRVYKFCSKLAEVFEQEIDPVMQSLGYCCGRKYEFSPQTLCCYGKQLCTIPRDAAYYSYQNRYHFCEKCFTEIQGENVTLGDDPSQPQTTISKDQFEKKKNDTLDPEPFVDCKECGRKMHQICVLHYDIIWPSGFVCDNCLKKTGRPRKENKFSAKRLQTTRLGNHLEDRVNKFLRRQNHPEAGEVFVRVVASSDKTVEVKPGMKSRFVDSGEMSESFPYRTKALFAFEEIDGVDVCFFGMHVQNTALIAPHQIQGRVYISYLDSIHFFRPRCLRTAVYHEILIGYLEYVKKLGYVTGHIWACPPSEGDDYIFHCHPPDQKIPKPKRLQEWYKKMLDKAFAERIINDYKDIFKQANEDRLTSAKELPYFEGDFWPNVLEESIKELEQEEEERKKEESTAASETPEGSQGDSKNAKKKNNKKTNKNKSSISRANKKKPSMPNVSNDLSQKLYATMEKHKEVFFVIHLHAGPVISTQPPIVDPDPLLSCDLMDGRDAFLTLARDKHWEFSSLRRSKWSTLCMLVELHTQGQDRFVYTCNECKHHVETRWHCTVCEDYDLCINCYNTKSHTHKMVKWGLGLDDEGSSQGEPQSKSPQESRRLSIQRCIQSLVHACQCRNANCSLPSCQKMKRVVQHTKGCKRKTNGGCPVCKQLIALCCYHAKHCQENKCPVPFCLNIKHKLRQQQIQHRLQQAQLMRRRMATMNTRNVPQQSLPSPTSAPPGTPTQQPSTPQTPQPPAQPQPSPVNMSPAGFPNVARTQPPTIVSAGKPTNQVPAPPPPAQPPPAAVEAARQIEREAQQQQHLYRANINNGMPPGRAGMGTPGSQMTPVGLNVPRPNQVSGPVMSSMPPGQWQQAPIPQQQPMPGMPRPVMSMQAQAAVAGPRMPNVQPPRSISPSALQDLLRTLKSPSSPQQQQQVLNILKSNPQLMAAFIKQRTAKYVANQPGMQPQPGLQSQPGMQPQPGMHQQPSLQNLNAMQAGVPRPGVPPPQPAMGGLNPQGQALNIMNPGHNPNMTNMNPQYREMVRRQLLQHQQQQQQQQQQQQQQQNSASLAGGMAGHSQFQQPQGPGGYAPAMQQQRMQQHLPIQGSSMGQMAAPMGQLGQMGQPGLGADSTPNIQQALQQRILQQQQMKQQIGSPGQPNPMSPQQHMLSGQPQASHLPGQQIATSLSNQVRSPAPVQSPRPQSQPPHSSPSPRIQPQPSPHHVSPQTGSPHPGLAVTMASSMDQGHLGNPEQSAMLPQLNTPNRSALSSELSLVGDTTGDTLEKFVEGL

What was measured:
[1] = target: T1, FLAG-Myc-tagged murine IRF7 K3R mutant (K398R, K400R, K406R) (murine) (UniProt P70434); assay: co-IP; HEK-293T transfected with expression vectors for 24 h, then infected with SeV for 6 h or left untreated; IP lysis buffer (10mM Tris-HCl, pH 7.5, 2mM EDTA, 1% NP40, 150mM NaCl); immunoblot
T1 sequence: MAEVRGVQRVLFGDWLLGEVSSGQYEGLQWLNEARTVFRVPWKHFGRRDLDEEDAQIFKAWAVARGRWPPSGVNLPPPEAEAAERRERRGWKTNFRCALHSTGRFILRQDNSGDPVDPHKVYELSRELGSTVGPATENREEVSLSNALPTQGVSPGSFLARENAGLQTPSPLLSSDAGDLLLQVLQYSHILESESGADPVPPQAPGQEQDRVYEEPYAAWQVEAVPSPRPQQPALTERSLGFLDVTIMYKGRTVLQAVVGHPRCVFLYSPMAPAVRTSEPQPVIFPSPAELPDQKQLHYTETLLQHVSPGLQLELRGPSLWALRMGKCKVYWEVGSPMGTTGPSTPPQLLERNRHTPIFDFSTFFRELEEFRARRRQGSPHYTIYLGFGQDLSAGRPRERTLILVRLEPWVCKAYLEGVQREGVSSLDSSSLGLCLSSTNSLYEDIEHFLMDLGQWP

[2] = target: T2, FLAG-Myc-tagged murine IRF7 WT (murine) (UniProt P70434); assay: as above
T2 sequence: T1 sequence with R398K, R400K, R406K

Substance | binding [1] | binding [2]
FLAG-tagged human IRF5 (from UniProt Q13568 1-498) | binds | binds
FLAG-tagged murine CBP (from UniProt P45481 1-2441) | binds | binds
